According to publication PMC4808003:
Results are given in words; binding and its absence hold for the method and conditions named. Binding seen in cells or lysates may run through a third protein. Some binding calls cover weakened binding; strength is not graded here.

Protein sequences, listed by entry. Tags and fused reporters are not part of them.
UniProt O14746: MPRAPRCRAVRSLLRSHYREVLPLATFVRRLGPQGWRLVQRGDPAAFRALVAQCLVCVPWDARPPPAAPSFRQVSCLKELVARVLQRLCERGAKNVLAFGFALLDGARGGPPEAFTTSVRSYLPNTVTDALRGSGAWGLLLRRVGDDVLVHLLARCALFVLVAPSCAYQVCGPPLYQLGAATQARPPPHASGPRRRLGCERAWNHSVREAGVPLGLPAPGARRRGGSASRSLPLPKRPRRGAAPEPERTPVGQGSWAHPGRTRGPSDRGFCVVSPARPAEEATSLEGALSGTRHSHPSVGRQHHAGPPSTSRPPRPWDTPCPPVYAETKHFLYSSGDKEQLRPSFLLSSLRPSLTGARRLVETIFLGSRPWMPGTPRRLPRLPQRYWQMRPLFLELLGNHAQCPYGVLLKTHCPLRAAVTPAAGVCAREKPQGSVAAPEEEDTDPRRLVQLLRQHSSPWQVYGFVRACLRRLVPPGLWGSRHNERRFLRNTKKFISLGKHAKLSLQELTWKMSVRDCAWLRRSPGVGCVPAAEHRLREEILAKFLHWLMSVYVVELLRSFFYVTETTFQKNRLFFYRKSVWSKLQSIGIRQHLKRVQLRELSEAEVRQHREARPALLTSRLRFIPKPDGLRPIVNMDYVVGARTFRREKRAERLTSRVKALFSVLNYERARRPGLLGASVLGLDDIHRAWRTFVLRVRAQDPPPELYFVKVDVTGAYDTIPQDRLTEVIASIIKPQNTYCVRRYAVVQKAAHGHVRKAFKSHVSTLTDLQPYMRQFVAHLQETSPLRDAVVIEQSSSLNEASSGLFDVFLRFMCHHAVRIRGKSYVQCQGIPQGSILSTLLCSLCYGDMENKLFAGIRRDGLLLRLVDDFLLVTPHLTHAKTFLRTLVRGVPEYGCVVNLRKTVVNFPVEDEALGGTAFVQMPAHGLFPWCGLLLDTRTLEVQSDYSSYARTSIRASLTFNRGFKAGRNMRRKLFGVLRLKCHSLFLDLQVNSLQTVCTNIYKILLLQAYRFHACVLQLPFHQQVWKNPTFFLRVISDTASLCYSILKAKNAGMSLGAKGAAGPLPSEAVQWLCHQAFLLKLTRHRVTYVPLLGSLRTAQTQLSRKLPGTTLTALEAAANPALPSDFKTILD

Biological target: human telomerase reverse transcriptase (hTERT) (human (endogenous in HCT116)) (UniProt O14746)
Assay: co-IP; HCT116 lysates, endogenous proteins; precleared with anti-rabbit IgG magnetic beads, IP with anti-hTERT, anti-ZEB1 or rabbit IgG for 4 h at 4°C (Universal Magnetic Co-IP Kit); western blot

B1: ZEB1 (zinc-finger E-box binding homeobox 1) (protein, UniProt P37275 1-1124)
chain: MADGPRCKRRKQANPRRNNVTNYNTVVETNSDSDDEDKLHIVEEESVTDAADCEGVPEDDLPTDQTVLPGRSSEREGNAKNCWEDDRKEGQEILGPEAQADEAGCTVKDDECESDAENEQNHDPNVEEFLQQQDTAVIFPEAPEEDQRQGTPEASGHDENGTPDAFSQLLTCPYCDRGYKRFTSLKEHIKYRHEKNEDNFSCSLCSYTFAYRTQLERHMTSHKSGRDQRHVTQSGCNRKFKCTECGKAFKYKHHLKEHLRIHSGEKPYECPNCKKRFSHSGSYSSHISSKKCISLIPVNGRPRTGLKTSQCSSPSLSASPGSPTRPQIRQKIENKPLQEQLSVNQIKTEPVDYEFKPIVVASGINCSTPLQNGVFTGGGPLQATSSPQGMVQAVVLPTVGLVSPISINLSDIQNVLKVAVDGNVIRQVLENNQANLASKEQETINASPIQQGGHSVISAISLPLVDQDGTTKIIINYSLEQPSQLQVVPQNLKKENPVATNSCKSEKLPEDLTVKSEKDKSFEGGVNDSTCLLCDDCPGDINALPELKHYDLKQPTQPPPLPAAEAEKPESSVSSATGDGNLSPSQPPLKNLLSLLKAYYALNAQPSAEELSKIADSVNLPLDVVKKWFEKMQAGQISVQSSEPSSPEPGKVNIPAKNNDQPQSANANEPQDSTVNLQSPLKMTNSPVLPVGSTTNGSRSSTPSPSPLNLSSSRNTQGYLYTAEGAQEEPQVEPLDLSLPKQQGELLERSTITSVYQNSVYSVQEEPLNLSCAKKEPQKDSCVTDSEPVVNVIPPSANPINIAIPTVTAQLPTIVAIADQNSVPCLRALAANKQTILIPQVAYTYSTTVSPAVQEPPLKVIQPNGNQDERQDTSSEGVSNVEDQNDSDSTPPKKKMRKTENGMYACDLCDKIFQKSSSLLRHKYEHTGKRPHECGICKKAFKHKHHLIEHMRLHSGEKPYQCDKCGKRFSHSGSYSQHMNHRYSYCKREAEERDSTEQEEAGPEILSNEHVGARASPSQGDSDERESLTREEDEDSEKEEEEEDKEMEELQEEKECEKPQGDEEEEEEEEEVEEEEVEEAENEGEEAKTEGLMKDDRAESQASSLGQKVGESSEQVSEEKTNEA
  binding: binds
